Test [1] concerns the target glycocalicin (human platelet derived) (human) (UniProt P07359). In words: Western blot.
For test [2] the target is unchanged. In words: Western blot of platelet proteins. A general note: Immunoblotting shows a protein as a band on a membrane.
Test [3] deals with T1, complement compound 4 (CC4) (human) (UniProt P0C0L4).
T1 sequence (looked up): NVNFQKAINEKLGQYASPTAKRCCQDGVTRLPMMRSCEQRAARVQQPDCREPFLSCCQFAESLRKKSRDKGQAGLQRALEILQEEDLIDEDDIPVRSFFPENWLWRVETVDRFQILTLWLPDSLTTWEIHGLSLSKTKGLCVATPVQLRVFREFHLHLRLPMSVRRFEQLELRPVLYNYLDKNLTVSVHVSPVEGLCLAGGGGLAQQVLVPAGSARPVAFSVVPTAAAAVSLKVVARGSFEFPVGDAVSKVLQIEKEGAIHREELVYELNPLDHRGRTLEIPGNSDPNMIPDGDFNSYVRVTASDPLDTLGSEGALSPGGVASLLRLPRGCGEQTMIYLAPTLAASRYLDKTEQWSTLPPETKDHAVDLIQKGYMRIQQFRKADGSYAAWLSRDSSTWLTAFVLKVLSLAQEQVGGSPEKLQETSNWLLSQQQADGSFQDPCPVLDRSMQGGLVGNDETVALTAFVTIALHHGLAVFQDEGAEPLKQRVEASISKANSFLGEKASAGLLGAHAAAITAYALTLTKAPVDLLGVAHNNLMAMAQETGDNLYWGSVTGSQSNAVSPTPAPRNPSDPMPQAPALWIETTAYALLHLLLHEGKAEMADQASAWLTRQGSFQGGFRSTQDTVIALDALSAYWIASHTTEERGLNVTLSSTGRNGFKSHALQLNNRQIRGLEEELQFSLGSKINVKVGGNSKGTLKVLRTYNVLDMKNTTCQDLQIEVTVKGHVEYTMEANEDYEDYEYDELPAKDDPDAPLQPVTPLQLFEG
Put plainly: summary of the experiments.

By UniProt entry, the sequences of proteins in these tests, tags left out. Residues count along the entry.
UniProt P07359, residues 17-531: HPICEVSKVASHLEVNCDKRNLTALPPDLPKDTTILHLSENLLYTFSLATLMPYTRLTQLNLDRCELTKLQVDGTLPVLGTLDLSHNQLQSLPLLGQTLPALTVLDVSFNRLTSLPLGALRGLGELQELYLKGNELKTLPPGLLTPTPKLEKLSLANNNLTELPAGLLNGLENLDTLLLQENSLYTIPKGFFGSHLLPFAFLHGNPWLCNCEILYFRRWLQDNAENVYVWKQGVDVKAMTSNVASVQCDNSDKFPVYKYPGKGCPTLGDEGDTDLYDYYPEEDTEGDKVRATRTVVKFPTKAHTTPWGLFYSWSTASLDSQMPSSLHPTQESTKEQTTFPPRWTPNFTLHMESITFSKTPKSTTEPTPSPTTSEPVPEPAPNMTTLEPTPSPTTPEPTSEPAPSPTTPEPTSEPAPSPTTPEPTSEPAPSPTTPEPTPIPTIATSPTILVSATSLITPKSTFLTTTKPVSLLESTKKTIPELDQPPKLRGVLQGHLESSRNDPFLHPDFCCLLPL

In test [4] the target is T1, complement compound 4 (CC4) (human). Put plainly: Western blot of human plasma proteins.
Test [5] has the same target. In words: immunoblot of human plasma, purification and peptide mapping.

Substitutions are numbered along the chain they refer to. No constants are given. Whether binding was seen depends on the method and setting. Some entries that bind do so weakly or less than the wild type.

B1: Y17 scFv (scFv)
scFv: EVQLVESGGGVVRPGGSLRLSCAASGFTFDDYGMSWVRQAPGKGLEWVSGINWNGGSTGYADSVKGRFTISRDNAKNSLYLQMNSLRAEDTAVYYCARLTHPYFWGQGTLVTVSRGGGGSGGGGSGGGGSSELTQDPAVSVALGQTVRITCQGDSLRSYYASWYQQKPGQAPVLVIYGKNNRPSGIPDRFSGSSSGNTASLTITGAQAEDEADYYCNSRDSSGNHVVFGGGTKLTVLGAAAEQKLISEEDLNGAA
On to B1, for which the binding result in test [1] and in test [2] was “binds” throughout.

B2: Y1 scFv (scFv)
scFv: B1 scFv with L99M, T100R, H101A, Y103V, F104I
For the molecule B2, the binding result in test [3], in test [4] and in test [5] was “binds” each time.
